{
  "source": "patent US5264565A",
  "about": "“Nucleic acid encoding the D2 /Ml chimeric receptor” (Affymax Technologies, N.V., priority 1991, dated 1993)",
  "biological_target": "D2 /ml receptor",
  "experiment": "Competition binding assay with [3H]-spiperone, D2/ml chimeric receptor",
  "parameters": "species or system human",
  "conditions": "0.5 nM [3H]-spiperone, anti-log of mean log Ki, three experiments, Cheng-Prusoff",
  "experimental": "Cells were detached from culture flasks with EDTA, pelleted at 1,000×g and resuspended in 1× binding buffer (100 mM Tris; 120 mM NaCl; 5 mM KCl; 1 mM MgCl2; 2 mM CaCl2; 1.1 mM ascorbic acid; pH 7.4) at ~1×10^6 cells/ml. Cells were homogenized with a Polytron (Brinkman) and the crude membrane fraction was pelleted at 17,000× g for 10 min. Membranes were resuspended in 1× binding buffer and ~10 μg of membrane protein from CHO-D2(414) cells or ~20 μg of protein from CHO-D2 /ml cells was used per 1 ml binding reaction. Triplicate binding reactions were done in IX binding buffer for 30 min. at 37°, then stopped by filtration through glass-fiber filters (Skatron) that were pre-soaked in 0.1% polyethyleneimine, followed by a 5 sec. wash with ice cold 0.1× binding buffer. […]. […] Competing ligands were all from Research Biochemicals Inc.\nIC50 's were determined by analysis with the program ALLFIT (A. De Lean et al., Am. J. Physiol. 235:E97 (1978), which is incorporated herein by reference) and Ki computed using the Cheng-Prusoff equation (Y. Cheng and W. Prusoff, Biochem. Pharmacol. 22:3099 (1973), which is incorporated herein by reference). […] Values are the anti-log of the mean log Ki from three separate experiments and 95% confidence intervals calculated from the standard deviation of the log Ki.",
  "data": [
    {"compound": "OCCN1CCN(CCCN2c3ccccc3Sc3ccc(C(F)(F)F)cc32)CC1", "note": "[Fluphenazine]", "values": [
      {"measurement": "Ki", "value": 7.2, "unit": "nM"}
    ]}
  ]
}
